Measurements published in the supplement of paper PMC10849652.
Some of the results follow.

Sequences of proteins named here, by UniProt entry; tags and fusion partners are left off. A change or cut given only in a name is not applied to a line headed by its entry.
UniProt P21439, whole entry, looked up: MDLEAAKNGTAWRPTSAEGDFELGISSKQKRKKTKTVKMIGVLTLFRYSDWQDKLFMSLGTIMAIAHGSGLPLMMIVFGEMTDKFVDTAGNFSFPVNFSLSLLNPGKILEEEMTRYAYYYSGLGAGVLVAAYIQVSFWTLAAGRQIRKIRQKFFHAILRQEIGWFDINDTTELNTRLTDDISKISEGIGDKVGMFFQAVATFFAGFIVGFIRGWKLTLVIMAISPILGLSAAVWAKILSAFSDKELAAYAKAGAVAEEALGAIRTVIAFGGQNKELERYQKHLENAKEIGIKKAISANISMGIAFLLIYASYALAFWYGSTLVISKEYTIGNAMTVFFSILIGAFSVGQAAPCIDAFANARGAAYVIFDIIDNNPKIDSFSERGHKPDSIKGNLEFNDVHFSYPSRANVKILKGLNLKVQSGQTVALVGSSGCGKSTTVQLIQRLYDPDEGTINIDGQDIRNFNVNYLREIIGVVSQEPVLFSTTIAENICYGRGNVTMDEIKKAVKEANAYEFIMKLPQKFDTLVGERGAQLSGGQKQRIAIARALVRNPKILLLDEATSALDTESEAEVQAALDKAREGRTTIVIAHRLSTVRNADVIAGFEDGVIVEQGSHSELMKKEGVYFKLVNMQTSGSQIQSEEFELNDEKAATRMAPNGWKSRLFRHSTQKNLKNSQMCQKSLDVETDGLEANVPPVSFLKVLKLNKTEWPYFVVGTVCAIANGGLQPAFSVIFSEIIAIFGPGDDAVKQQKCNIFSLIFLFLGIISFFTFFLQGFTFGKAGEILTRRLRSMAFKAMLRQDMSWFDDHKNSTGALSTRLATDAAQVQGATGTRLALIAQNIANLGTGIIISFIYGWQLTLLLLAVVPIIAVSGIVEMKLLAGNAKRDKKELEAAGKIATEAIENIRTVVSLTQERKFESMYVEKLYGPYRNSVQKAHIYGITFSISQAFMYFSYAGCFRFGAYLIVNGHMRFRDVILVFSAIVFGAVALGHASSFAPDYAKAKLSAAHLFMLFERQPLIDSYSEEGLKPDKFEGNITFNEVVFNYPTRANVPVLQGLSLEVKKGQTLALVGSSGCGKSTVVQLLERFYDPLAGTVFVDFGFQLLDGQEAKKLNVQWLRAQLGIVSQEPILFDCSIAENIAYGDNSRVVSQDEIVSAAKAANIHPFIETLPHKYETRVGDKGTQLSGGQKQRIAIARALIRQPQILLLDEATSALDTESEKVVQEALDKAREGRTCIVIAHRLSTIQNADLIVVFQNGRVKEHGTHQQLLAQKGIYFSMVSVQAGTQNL
UniProt P33897: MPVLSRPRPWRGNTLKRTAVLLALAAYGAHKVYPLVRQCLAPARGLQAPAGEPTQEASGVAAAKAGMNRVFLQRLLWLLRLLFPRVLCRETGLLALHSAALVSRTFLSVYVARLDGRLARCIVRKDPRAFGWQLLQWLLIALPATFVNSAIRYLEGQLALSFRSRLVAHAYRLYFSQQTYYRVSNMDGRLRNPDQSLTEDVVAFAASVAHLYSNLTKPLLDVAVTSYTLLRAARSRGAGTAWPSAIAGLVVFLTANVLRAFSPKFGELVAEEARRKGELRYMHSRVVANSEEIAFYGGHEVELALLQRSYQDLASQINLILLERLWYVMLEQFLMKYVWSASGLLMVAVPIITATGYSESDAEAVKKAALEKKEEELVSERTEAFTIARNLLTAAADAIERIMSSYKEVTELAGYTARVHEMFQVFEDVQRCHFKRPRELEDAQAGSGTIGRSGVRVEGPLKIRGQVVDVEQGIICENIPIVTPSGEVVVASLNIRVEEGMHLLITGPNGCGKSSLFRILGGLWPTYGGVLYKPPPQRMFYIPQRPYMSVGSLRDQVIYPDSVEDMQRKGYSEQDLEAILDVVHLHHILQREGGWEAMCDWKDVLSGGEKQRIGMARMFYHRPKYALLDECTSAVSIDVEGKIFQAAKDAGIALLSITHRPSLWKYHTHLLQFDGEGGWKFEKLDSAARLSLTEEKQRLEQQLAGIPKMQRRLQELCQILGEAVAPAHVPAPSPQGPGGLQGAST
UniProt P14621: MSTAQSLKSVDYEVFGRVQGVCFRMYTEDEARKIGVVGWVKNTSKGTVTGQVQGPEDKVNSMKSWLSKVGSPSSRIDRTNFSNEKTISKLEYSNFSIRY
UniProt Q6JQN1: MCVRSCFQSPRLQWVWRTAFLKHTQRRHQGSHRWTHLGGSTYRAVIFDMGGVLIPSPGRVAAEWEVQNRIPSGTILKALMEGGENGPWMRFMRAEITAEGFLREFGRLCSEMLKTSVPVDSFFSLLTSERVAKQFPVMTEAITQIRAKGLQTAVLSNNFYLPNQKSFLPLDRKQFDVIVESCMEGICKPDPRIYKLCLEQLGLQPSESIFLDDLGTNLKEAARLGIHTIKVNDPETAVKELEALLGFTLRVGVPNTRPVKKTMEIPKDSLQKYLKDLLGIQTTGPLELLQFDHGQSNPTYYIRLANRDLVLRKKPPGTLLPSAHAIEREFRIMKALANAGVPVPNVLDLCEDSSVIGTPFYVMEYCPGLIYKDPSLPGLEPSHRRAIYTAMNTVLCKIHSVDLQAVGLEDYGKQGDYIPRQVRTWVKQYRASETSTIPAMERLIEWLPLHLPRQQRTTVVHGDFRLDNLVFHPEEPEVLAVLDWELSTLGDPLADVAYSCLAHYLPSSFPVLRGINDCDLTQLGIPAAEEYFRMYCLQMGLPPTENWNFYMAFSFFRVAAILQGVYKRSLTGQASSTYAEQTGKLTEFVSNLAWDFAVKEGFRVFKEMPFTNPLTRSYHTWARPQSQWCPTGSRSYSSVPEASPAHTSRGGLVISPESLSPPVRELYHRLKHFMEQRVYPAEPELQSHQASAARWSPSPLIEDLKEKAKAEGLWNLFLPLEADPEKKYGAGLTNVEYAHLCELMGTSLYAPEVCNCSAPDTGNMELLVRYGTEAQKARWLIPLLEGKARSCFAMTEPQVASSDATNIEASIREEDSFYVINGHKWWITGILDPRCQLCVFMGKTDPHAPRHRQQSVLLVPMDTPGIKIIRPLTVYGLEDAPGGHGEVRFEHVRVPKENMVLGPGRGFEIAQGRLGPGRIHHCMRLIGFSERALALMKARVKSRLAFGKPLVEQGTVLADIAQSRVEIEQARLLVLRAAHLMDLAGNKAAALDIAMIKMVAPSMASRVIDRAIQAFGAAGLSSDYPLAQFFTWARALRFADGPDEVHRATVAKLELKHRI
UniProt P53396: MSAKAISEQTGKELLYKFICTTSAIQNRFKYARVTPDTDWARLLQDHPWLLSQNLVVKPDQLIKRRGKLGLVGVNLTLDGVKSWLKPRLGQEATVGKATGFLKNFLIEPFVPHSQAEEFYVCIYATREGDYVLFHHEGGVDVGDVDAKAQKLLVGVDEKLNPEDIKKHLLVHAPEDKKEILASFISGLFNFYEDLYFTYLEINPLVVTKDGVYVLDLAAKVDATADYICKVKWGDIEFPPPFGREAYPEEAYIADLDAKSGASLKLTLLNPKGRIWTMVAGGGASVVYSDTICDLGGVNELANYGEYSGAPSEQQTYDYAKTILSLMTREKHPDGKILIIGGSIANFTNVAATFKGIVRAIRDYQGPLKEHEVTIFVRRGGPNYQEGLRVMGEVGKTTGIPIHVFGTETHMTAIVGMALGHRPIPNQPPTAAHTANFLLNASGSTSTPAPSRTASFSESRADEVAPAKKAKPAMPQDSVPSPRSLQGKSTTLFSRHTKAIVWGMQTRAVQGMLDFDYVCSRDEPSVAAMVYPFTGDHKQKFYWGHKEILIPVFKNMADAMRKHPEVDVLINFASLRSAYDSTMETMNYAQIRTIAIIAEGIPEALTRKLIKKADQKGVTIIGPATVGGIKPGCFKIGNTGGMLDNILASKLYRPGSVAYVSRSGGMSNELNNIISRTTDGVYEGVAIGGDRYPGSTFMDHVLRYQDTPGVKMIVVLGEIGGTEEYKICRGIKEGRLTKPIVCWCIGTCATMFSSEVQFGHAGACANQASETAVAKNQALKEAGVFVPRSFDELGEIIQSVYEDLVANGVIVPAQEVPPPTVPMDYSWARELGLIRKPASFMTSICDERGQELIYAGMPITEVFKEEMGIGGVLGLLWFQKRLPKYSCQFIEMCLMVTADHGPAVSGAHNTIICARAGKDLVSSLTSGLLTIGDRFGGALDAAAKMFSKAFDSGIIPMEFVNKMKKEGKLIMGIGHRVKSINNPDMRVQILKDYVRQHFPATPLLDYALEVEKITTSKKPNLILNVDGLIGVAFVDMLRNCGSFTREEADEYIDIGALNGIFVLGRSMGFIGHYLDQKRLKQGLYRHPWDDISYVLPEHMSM
UniProt Q15067: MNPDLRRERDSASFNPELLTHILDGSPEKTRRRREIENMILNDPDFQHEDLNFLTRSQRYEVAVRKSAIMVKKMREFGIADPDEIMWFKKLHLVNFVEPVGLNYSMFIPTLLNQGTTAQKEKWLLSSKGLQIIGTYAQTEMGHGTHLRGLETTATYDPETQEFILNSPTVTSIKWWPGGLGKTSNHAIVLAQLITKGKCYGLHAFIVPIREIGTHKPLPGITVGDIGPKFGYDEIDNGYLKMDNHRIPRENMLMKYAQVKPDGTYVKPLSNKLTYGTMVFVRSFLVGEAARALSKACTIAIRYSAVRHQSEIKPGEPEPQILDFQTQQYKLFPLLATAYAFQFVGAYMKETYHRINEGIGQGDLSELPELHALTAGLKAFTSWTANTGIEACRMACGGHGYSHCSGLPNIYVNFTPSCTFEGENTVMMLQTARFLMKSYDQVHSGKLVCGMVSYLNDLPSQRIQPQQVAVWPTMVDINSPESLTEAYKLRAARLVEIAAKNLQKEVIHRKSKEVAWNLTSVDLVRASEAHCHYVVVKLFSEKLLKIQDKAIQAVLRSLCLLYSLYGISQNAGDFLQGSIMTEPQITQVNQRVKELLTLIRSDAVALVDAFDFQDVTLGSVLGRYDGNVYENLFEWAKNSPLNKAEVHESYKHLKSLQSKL
UniProt Q7L211: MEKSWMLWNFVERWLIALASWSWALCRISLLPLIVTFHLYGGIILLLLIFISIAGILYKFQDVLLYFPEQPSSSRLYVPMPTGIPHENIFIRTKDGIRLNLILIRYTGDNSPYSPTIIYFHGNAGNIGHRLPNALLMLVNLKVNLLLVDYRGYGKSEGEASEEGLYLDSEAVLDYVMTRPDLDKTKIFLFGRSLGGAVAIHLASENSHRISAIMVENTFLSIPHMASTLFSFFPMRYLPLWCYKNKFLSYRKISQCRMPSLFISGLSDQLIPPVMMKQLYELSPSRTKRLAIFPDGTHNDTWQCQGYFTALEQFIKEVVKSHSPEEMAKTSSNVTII
UniProt P42684, whole entry, looked up: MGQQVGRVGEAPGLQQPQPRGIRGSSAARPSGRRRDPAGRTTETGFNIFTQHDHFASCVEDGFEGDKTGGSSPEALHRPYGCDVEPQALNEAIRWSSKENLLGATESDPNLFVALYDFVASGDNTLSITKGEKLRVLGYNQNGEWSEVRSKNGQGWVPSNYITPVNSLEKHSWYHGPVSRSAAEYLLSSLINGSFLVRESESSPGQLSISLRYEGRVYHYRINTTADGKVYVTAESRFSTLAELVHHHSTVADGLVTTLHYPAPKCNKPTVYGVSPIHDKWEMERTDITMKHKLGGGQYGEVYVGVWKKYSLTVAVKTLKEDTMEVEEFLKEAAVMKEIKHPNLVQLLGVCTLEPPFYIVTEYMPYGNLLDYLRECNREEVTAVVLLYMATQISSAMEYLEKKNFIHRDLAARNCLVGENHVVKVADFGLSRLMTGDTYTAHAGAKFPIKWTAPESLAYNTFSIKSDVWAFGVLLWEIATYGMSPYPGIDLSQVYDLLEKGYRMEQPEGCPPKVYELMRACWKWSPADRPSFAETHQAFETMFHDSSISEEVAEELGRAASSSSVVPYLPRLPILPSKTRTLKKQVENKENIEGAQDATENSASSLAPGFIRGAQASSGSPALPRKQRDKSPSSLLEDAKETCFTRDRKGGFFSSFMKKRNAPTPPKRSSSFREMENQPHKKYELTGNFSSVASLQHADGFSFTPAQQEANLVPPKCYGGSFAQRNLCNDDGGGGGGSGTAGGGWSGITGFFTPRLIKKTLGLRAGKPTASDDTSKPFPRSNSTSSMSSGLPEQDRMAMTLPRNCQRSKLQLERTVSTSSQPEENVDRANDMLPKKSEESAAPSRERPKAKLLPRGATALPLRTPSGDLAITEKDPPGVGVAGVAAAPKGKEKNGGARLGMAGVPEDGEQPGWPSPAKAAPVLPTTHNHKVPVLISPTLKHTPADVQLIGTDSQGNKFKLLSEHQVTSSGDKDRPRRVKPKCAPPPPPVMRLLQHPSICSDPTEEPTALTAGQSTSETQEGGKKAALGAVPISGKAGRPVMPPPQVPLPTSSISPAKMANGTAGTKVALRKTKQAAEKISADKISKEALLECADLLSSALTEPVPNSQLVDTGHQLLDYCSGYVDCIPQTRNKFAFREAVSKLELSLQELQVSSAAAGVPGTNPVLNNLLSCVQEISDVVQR

Experiments:
Test in all cases: log2 fold change, soluble protein after heating vs DMSO (PISA); higher = thermal stabilisation; K562 cells, 10 uM, 30 min; active = over 0.2 and 3.5 SD of the protein, either way, in both replicates (recomputed)
[1] = compound: CC1=C(SC2=C1C(=N[C@H](C3=NN=C(N32)C)CC(=O)N)C4=CC=C(C=C4)Cl)C
Method in brief: (§1)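 K562 cells at 2×10^6 cells/mL were given 10 μM compound for 30 min. Aliquots then went through 3 min of heating across 48°C-58°C, were pooled, and were extracted in PBS with 0.5% NP-40 at 4°C, and the supernatant after 21,000xg for 90 min was quantified by TMTpro 16plex LC-MS/MS with channel sums equalised. Thermal stability relative to control samples, from duplicates, is given as log2 fold change.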

[2] = compound: CC1=C2C(=CC=C1)N=C(N(C2=O)C3=CC=CC=C3C)CN4C=NC5=C(N=CN=C54)N
Method in brief: as §1

[3] = compound: Cc1sc2c(c1C)C(c1ccc(Cl)cc1)=N[C@@H](CC(=O)OC(C)(C)C)c1nnc(C)n1-2
Method in brief: as §1

[4] = compound: c1ccc([C@@H]2C[C@H]2NC2CCNCC2)cc1
Method in brief: as §1

[5] = compound: C1=CC=C(C=C1)[C@H](COC2=CC3=C(C=C2)NC(=O)N3)NC(=O)C4=CC=CN(C4=O)CC5=CC(=C(C=C5)F)F
Method in brief: as §1

Measured: log2 fold change

ADCK1 (UniProt Q86TW2)
inactive: [1] 0.052 | [2] 0.014 | [3] 0.202 | [4] -0.015

A2ML1 (UniProt A8K2U0)
inactive: [2] 0.12 | [3] -0.509

ACVR1 (UniProt Q04771)
inactive: [1] 0.061 | [2] 0.041 | [3] -0.218 | [4] 0.072

ACCS (UniProt Q96QU6)
inactive: [5] -0.469 | [1] 0.024 | [3] 0.08 | [4] 0.006

ABCB11 (UniProt O95342)
inactive: [1] 0.095 | [3] 0.019 | [4] -0.11

AAGAB (UniProt Q6PD74)
inactive: [5] -0.025 | [1] 0.044 | [2] 0.198 | [3] -0.03 | [4] 0.038

AARSD1 (UniProt Q9BTE6)
inactive: [5] -0.081 | [1] -0.267 | [4] -0.068

ABCB4 (UniProt P21439)
inactive: [2] -0.078 | [3] -0.119

ABCC10 (UniProt Q5T3U5)
inactive: [5] -0.061 | [2] 0.033 | [3] 0.05

ABCD1 (UniProt P33897)
inactive: [1] 0.061 | [4] -0.093

ABHD5 (UniProt Q8WTS1)
inactive: [5] -0.041 | [1] 0.018 | [3] 0.076 | [4] 0.102

ACTBL2 (UniProt Q562R1)
inactive: [5] -0.444 | [2] -0.201

ACYP2 (UniProt P14621)
inactive: [1] 0.412 | [2] 0.121 | [3] -0.028 | [4] -0.109

ACTN4 (UniProt K7EJH8)
inactive: [5] 0.007 | [1] 0.049 | [3] 0.075 | [4] 0.046

ACTRT1 (UniProt Q8TDG2)
inactive: [5] -0.066 | [2] 0.264

ACAD10 isoform 5 (UniProt Q6JQN1)
inactive: [2] 0.016

ABHD6 (UniProt Q9BV23)
inactive: [3] 0.377

ACBD5 (UniProt Q5T8D3)
inactive: [1] 0.018 | [2] 0.011 | [3] -0.075 | [4] -0.028

ACAA2 (UniProt K7ER88)
inactive: [5] 0.188 | [2] 0.023

ABHD12 isoform 2 (UniProt Q8N2K0)
inactive: [5] 0.023 | [1] 0.006 | [2] -0.018 | [3] 0.023 | [4] -0.064

ABCA4 (UniProt P78363)
inactive: [5] 0.174 | [1] 0.297 | [3] 0.03 | [4] -0.128

ACLY isoform 2 (UniProt P53396)
inactive: [5] -0.009 | [2] -0.066 | [3] 0.043

ACOX1 isoform 3 (UniProt Q15067)
inactive: [2] 0.579 | [3] 0.297

ABHD13 (UniProt Q7L211)
inactive: [5] -0.051 | [2] 0.034 | [3] -0.102

ACAT1, A0A5F9ZHJ0
inactive: [5] -0.082 | [1] 0.227 | [3] 0.097 | [4] 0.078

ACBD3 (UniProt Q9H3P7)
inactive: [5] -0.01 | [1] 0.04 | [2] 0.034 | [3] 0.001 | [4] -0.02

2 records picked at random from those above:
A2ML1 (UniProt A8K2U0)
inactive: [2] 0.12 | [3] -0.509

ACTBL2 (UniProt Q562R1)
inactive: [5] -0.444 | [2] -0.201

Going on with the list:

ACTR3B (UniProt Q9P1U1)
inactive: [2] -0.002 | [3] 0.173

ABL2 (UniProt P42684)
inactive: [5] -0.21 | [3] 0.025

ABRAXAS1 (UniProt Q6UWZ7)
inactive: [5] 0.231 | [1] -0.199 | [2] -0.105 | [3] 0.033 | [4] 0.104

ACTG1 (UniProt K7EM38)
inactive: [1] -0.609 | [2] 0.225 | [3] 0.128 | [4] -0.234
